Among the data in PMC12032302, “A20 attenuates oxidized self-DNA-mediated inflammation in acute kidney injury” (Signal Transduction and Targeted Therapy, 2025) are binding values, retold here.

Sequences of proteins named here, by UniProt entry; tags and fusion partners are left off.
UniProt Q9ES74: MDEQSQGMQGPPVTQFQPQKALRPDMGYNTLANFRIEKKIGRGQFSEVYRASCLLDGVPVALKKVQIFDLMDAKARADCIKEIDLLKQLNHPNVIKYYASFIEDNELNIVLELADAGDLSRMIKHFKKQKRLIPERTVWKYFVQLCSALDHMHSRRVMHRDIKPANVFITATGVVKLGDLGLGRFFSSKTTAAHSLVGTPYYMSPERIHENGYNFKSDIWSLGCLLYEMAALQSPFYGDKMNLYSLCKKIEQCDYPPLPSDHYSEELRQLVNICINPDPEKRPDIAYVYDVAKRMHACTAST

No constants are given. Whether binding was seen depends on the method and setting. In cells and extracts the contact can be indirect. These calls come from enrichment with a bait or labelling near it, and not all partners need be listed.

The target in the assay is T1, A20, endogenous in primary mouse BMDMs (mouse (endogenous in primary BMDMs)) (UniProt Q60769).
T1 sequence: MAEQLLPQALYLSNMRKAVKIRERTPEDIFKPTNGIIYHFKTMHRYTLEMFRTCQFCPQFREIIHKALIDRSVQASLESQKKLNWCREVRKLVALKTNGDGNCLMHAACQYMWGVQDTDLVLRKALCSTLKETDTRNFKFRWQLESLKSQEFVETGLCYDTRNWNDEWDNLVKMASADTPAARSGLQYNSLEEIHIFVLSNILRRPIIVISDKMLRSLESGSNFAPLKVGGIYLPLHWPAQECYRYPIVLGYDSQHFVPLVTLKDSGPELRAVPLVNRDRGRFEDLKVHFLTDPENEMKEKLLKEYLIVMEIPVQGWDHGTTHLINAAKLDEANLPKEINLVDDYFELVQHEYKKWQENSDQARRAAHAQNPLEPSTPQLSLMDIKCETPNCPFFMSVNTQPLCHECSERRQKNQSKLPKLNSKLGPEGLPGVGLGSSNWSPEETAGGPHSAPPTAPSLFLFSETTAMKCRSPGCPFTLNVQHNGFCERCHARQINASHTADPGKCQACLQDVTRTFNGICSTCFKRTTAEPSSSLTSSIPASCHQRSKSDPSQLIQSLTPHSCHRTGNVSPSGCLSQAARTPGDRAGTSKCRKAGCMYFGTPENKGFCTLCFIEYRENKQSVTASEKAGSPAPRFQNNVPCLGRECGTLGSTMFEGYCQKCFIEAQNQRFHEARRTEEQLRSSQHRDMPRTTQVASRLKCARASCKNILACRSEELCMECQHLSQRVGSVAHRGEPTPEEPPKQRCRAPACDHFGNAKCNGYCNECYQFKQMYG
As to the kind of experiment: affinity purification with mass spectrometry; primary BMDMs with or without 30 µg ox-dsDNA90 for 6 h, mild lysis buffer; immunoprecipitation with A20 antibody and Protein A/G magnetic beads.

Regarding “NEK7, endogenous in primary mouse BMDMs (from UniProt Q9ES74 1-302)”, the binding result is on record as “binds”.
